Reference: PubChem BioAssay AID504808 (Drosophila RNAi Screening Center, 2011)

- Aim: 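Genes whose loss lifts activity of an E2F-responsive reporter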 (primary screen)
- System: Drosophila S2 cells
- Reagents: long dsRNA against Drosophila genes
- Measurement: 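Dual luciferase plate measurements; E2F-specific signal taken as firefly over Renilla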
- Direction: E2F firefly: higher = more E2F reporter activity; Renilla normaliser: higher = more normaliser reporter signal
- Hit rule: 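Called active if the normalised E2F reporter went up by over 50%; the cutoff is arbitrary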
In all, the deposit lists about 21,000 reagents; below is an unselected part of those that have a named target and a result. Of all reagents, 18 (0.084%) are marked active. 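Raw counts without plate normalisation, one of two replicates; the ratio scores behind the calls were not deposited.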 Unmarked entries are inactive. A plus sign joins genes that one reagent is predicted to hit. Not stated in the record: the amount of reagent, the time to read-out.

Ect3 [DRSC15462]
- E2F firefly, rep 1: 1.18e5
- Renilla normaliser, rep 1: 5466

vis + achi [DRSC07277]
- E2F firefly, rep 1: 150
- Renilla normaliser, rep 1: 33

CG32112 [DRSC09815]
- E2F firefly, rep 1: 1.16e5
- Renilla normaliser, rep 1: 6113

Polr1B [DRSC00780]
- E2F firefly, rep 1: 81497
- Renilla normaliser, rep 1: 3692

Np [DRSC06089]
- E2F firefly, rep 1: 1.49e5
- Renilla normaliser, rep 1: 4833

Np [DRSC07094]
- E2F firefly, rep 1: 1.53e5
- Renilla normaliser, rep 1: 5348

Nup44A [DRSC07248]
- E2F firefly, rep 1: 2732
- Renilla normaliser, rep 1: 201

CG8565 [DRSC20112]
- E2F firefly, rep 1: 1.47e5
- Renilla normaliser, rep 1: 6206

CG15019 [DRSC08473]
- E2F firefly, rep 1: 84647
- Renilla normaliser, rep 1: 3563

mRpL9 [DRSC15678]
- E2F firefly, rep 1: 1.16e5
- Renilla normaliser, rep 1: 5595

Iswi [DRSC07446]
- E2F firefly, rep 1: 88877
- Renilla normaliser, rep 1: 4416

CG3698 [DRSC11749]
- E2F firefly, rep 1: 93172
- Renilla normaliser, rep 1: 3999

mrva [DRSC11009]
- E2F firefly, rep 1: 66203
- Renilla normaliser, rep 1: 3360

Next part (4 carried over from the part before).
mRpL9 [DRSC15678]
- E2F firefly, rep 1: 1.16e5
- Renilla normaliser, rep 1: 5595

Iswi [DRSC07446]
- E2F firefly, rep 1: 88877
- Renilla normaliser, rep 1: 4416

CG3698 [DRSC11749]
- E2F firefly, rep 1: 93172
- Renilla normaliser, rep 1: 3999

mrva [DRSC11009]
- E2F firefly, rep 1: 66203
- Renilla normaliser, rep 1: 3360

CG12012 [DRSC08220]
- E2F firefly, rep 1: 1.05e5
- Renilla normaliser, rep 1: 4330

CG2865 [DRSC18527]
- E2F firefly, rep 1: 2044
- Renilla normaliser, rep 1: 872

CG2865 [DRSC18528]
- E2F firefly, rep 1: 49604
- Renilla normaliser, rep 1: 3883

Debcl [DRSC04965]
- E2F firefly, rep 1: 74162
- Renilla normaliser, rep 1: 3372

CG33144 [DRSC06132]
- E2F firefly, rep 1: 2797
- Renilla normaliser, rep 1: 43

CG33144 [DRSC07024]
- E2F firefly, rep 1: 1.59e5
- Renilla normaliser, rep 1: 5564

CG12825 [DRSC06174]
- E2F firefly, rep 1: 1.42e5
- Renilla normaliser, rep 1: 4210

CG34324 [DRSC19502]
- E2F firefly, rep 1: 1.28e5
- Renilla normaliser, rep 1: 6684

CG14903 [DRSC15024]
- E2F firefly, rep 1: 1.10e5
- Renilla normaliser, rep 1: 5573

Atg14 [DRSC14421]
- E2F firefly, rep 1: 2008
- Renilla normaliser, rep 1: 1132

beat-IIa [DRSC14813]
- E2F firefly, rep 1: 1.15e5
- Renilla normaliser, rep 1: 6115

beat-IIa [DRSC14814]
- E2F firefly, rep 1: 1.18e5
- Renilla normaliser, rep 1: 7202

CG13438 [DRSC06398]
- E2F firefly, rep 1: 91386
- Renilla normaliser, rep 1: 5036

CG14454 [DRSC11711]
- E2F firefly, rep 1: 1.05e5
- Renilla normaliser, rep 1: 6476

Fuca [DRSC10591]
- E2F firefly, rep 1: 56282
- Renilla normaliser, rep 1: 2946
